This is an account of results in article PMC9907809, “Conformational rearrangements in the sensory RcsF/OMP complex mediate signal transduction across the bacterial cell envelope” (PLOS Genetics, 2023).

Positions count from the first letter of the chain named. Names and notes keep the numbering of the source. No constants are given. Whether binding was seen depends on the method and setting. Binding seen in cells or lysates may run through a third protein. Some binding calls cover weakened binding; strength is not graded here.

Assay [1] has as its target T1, RcsF(T53F)-Strep (UniProt P69411).
T1 sequence (chain, lipidated N-terminal cysteine (residue 16)): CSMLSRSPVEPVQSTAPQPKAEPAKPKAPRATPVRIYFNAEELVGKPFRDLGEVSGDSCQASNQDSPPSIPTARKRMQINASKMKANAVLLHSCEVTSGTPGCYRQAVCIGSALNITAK
Description: pull-down; in vivo pull-down without crosslinking; membrane fractions solubilized in 1% DDM, RcsF-Strep held on Streptactin Sepharose, washed with 25 mM Tris-HCl pH 8.0, 150 mM NaCl, 0.02% DDM, eluted with desthiobiotin; immunoblots probed with α-OmpA and α-OmpC/F. (A western blot detects proteins with antibodies after separation by electrophoresis.)

Assay [2] deals with T2, RcsF(P62A)-Strep (UniProt P69411).
T2 sequence (chain, lipidated N-terminal cysteine (residue 16)): T1 sequence (chain, lipidated N-terminal cysteine (residue 16)) with F38T, P47A
The assay is described as above.

Assay [3] has as its target T3, RcsF(R64E)-Strep (UniProt P69411).
T3 sequence (chain, lipidated N-terminal cysteine (residue 16)): T1 sequence (chain, lipidated N-terminal cysteine (residue 16)) with F38T, R49E
Described as above.

Assay [4] deals with T4, RcsF-Strep, wild type (UniProt P69411).
T4 sequence (chain, lipidated N-terminal cysteine (residue 16)): T1 sequence (chain, lipidated N-terminal cysteine (residue 16)) with F38T
The assay is described as above.

Assay [5] has as its target T5, OmpA (not stated (endogenous in the host strain, background MC4100)) (UniProt P0A910).
T5 sequence: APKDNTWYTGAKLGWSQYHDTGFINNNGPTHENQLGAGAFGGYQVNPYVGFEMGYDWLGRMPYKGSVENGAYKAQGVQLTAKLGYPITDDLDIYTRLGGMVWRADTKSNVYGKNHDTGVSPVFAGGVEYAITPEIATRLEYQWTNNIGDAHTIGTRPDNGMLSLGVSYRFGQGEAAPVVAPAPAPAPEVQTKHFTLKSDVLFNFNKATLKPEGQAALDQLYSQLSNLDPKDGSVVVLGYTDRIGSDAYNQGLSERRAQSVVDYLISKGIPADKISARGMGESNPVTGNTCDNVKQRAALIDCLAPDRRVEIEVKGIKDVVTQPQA
Description: cross-linking; in vivo formaldehyde crosslinking; OM version of RcsF variants with endogenous OmpA (and BamA); immunoblot of whole cell lysates probed with α-RcsF, RcsF/OmpA band quantified relative to the WT.

For assay [6], the target named is T6, RcsF(A55V)-Strep (UniProt P69411).
T6 sequence (chain, lipidated N-terminal cysteine (residue 16)): T1 sequence (chain, lipidated N-terminal cysteine (residue 16)) with F38T, A40V
Description: pull-down; in vivo pull-down without crosslinking; membrane fractions solubilized in 1% DDM, RcsF-Strep held on Streptactin Sepharose, washed with 25 mM Tris-HCl pH 8.0, 150 mM NaCl, 0.02% DDM, eluted with desthiobiotin; immunoblots probed with α-OmpA and α-OmpC/F.

B1: OmpC (protein, UniProt P06996 22-367)
chain: AEVYNKDGNKLDLYGKVDGLHYFSDNKDVDGDQTYMRLGFKGETQVTDQLTGYGQWEYQIQGNSAENENNSWTRVAFAGLKFQDVGSFDYGRNYGVVYDVTSWTDVLPEFGGDTYGSDNFMQQRGNGFATYRNTDFFGLVDGLNFAVQYQGKNGNPSGEGFTSGVTNNGRDALRQNGDGVGGSITYDYEGFGIGGAISSSKRTDAQNTAAYIGNGDRAETYTGGLKYDANNIYLAAQYTQTYNATRVGSLGWANKAQNFEAVAQYQFDFGLRPSLAYLQSKGKNLGRGYDDEDILKYVDVGATYYFNKNMSTYVDYKINLLDDNQFTRDAGINTDNIVALGLVYQF
In the case of B1, the binding result in assay [1], in assay [2], in assay [3] and in assay [4] was “binds” each time.

B2: OmpF (protein, UniProt P02931 23-362)
chain: AEIYNKDGNKVDLYGKAVGLHYFSKGNGENSYGGNGDMTYARLGFKGETQINSDLTGYGQWEYNFQGNNSEGADAQTGNKTRLAFAGLKYADVGSFDYGRNYGVVYDALGYTDMLPEFGGDTAYSDDFFVGRVGGVATYRNSNFFGLVDGLNFAVQYLGKNERDTARRSNGDGVGGSISYEYEGFGIVGAYGAADRTNLQEAQPLGNGKKAEQWATGLKYDANNIYLAANYGETRNATPITNKFTNTSGFANKTQDVLLVAQYQFDFGLRPSIAYTKSKAKDVEGIGDVDLVNYFEVGATYYFNKNMSTYVDYIINQIDSDNKLGVGSDDTVAVGIVYQF
Consider B2, for which the binding entry in assay [1], in assay [2], in assay [3] and in assay [4] was “binds” throughout.

B3: RcsF, OM version, wild type (protein, UniProt P69411 16-134)
chain: T1 sequence (chain, lipidated N-terminal cysteine (residue 16)) with F38T
modifications: lipidated N-terminal cysteine (residue 16)
On to B3, for which, in assay [5], the binding result is on record as “binds”.

B4: RcsF(T132I), OM version (protein, UniProt P69411 16-134)
chain: T1 sequence (chain, lipidated N-terminal cysteine (residue 16)) with F38T, T117I
modifications: lipidated N-terminal cysteine (residue 16)
For the molecule B4, in assay [5], the binding entry is “binds”.

B5: RcsF(P62A), OM version (protein, UniProt P69411 16-134)
chain: T1 sequence (chain, lipidated N-terminal cysteine (residue 16)) with F38T, P47A
modifications: lipidated N-terminal cysteine (residue 16)
In the case of B5, the binding entry in assay [5] is “binds”.

B6: RcsF(R64E), OM version (protein, UniProt P69411 16-134)
chain: T1 sequence (chain, lipidated N-terminal cysteine (residue 16)) with F38T, R49E
modifications: lipidated N-terminal cysteine (residue 16)
For the molecule B6, the binding result in assay [5] was “binds”.

B7: OmpA (protein, UniProt P0A910 22-346)
chain: T5 sequence
B7: the binding entry in assay [1], in assay [2], in assay [3], in assay [4] and in assay [6] was “binds” throughout.
